These results are taken from patent US20080199897A1, “CLASS II HISTONE DEACETYLASE WHOLE CELL ENZYME ASSAY” (MethylGene Inc., priority 2007, published 2008).

This assay has as its system A549. The assay is described as follows: whole cell deacetylase assay with Boc-Lys(Ac)-AMC in A549 cells. The note with it: read-out: whole cell deacetylase IC50, A549, pre-incubated with inhibitor 16 hours, Boc-Lys(Ac)-AMC substrate, mean of at least 2 experiments.

As a reminder, the IC50 is the concentration that gives 50% inhibition. As for `O=C(CCCCCCC(=O)Nc1ccccc1)NO` [SAHA], the IC50 came out at 500 nM.
